Reference: patent US20140088023A1
Results are given in words; binding and its absence hold for the method and conditions named. Binding seen in cells or lysates may run through a third protein. Some results given as binding are weak or reduced against the parent protein; the word gives no strength.

Assays:
[1] = biological target: T1, soluble guanylyl cyclase alpha 1 (sGCα1) (UniProt Q02108); test: co-IP with anti-sGCα1 antibody from LNCaP cytoplasmic extract, Western blot
T1 sequence (looked up): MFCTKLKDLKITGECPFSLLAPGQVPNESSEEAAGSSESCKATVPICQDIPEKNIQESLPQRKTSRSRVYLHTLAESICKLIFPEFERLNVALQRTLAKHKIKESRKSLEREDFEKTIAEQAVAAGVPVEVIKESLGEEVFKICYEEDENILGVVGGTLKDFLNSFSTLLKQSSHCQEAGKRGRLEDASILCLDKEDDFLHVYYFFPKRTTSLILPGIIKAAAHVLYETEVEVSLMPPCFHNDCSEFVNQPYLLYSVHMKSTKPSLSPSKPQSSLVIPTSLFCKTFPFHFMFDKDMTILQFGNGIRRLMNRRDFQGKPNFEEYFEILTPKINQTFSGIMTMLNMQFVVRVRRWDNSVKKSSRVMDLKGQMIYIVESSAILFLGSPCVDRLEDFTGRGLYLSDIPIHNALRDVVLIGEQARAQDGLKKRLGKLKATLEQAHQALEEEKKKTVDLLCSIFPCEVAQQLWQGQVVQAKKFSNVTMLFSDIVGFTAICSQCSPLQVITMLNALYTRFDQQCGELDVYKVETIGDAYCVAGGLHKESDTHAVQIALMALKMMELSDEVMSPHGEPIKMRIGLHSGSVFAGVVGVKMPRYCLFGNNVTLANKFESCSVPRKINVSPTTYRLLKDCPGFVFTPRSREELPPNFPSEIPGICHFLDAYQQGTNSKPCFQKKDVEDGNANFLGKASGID

[2] = biological target: T1, soluble guanylyl cyclase alpha 1 (sGCα1); test: co-IP with anti-sGCα1 antibody of mixed E. coli extracts, Western blot for p53

p53 (from UniProt P04637 1-393)
binding [1]: binds | binding [2]: binds
